From patent US20240409482A1, “Novel Compound and Organic Light Emitting Device Comprising the Same” (LG Chem, Ltd., priority 2022, published 2024)

Experiment: Characteristic evaluation of organic light emitting device (compound as host of the light emitting layer)
Conditions: for Driving voltage (V @ 10 mA/cm^2) / EQE (% @ 10 mA/cm^2): current density 10 mA/cm^2; for Lifetime (hr) (T90 @500 nit): time for luminance to be reduced to 90% of initial luminance (500 nit)
Method: A glass substrate thinly coated with ITO (indium tin oxide) to have a thickness of 500 Å was put into distilled water in which a detergent was dissolved, and ultrasonically washed. In this case, a product manufactured by Fischer Co., was used as the detergent, and distilled water twice filtered using a filter manufactured by Millipore Co., was used as the distilled water. After the ITO was washed for 30 minutes, ultrasonic washing was conducted twice repeatedly using distilled water for 10 minutes. After the washing using distilled water was completed, ultrasonic washing was conducted using isopropyl, and acetone solvents, and drying was conducted, and then the substrate was cleaned for 5 minutes, and then transferred to a glove box.
A coating composition, in which the following Compound O and the following Compound P (weight ratio of 2:8) were dissolved in 20 wt/v % cyclohexanone, was spin-coated (4000 rpm) on the ITO transparent electrode, and heat-treated (cured) at 200° C. for 30 minutes to form a hole injection layer with a thickness of 400 Å.
A coating composition, in which the following Compound Q (Mn: 27,900; Mw: 35,600; measured by gel permeation chromatography (GPC) on Agilent 1200 series, relative to PC standards) was dissolved in 6 wt/v % toluene, spin-coated (4000 rpm) on the hole injection layer, and heat-treated at 200° C. for 30 minutes to form a hole transport layer with a thickness of 200 Å.
A coating composition, in which Compound 1 prepared in the previous Preparation Example 1 as a host and Compound R as a dopant of the light emitting layer (a weight ratio of 98:2) were dissolved in 1.3 wt/v % cyclohexanone, spin-coated (4000 rpm) on the hole transport layer, and heat-treated at 180° C. for 30 minutes to form a light emitting layer with a thickness of 400 Å.
After being transferred to a vacuum depositor, the following Compound S was vacuum-deposited to a thickness of 350 Å on the light emitting layer to form an electron injection and transport layer. LiF and aluminum were sequentially deposited to have a thickness of 10 Å and 1000 Å, respectively, on the electron injection and transport layer, thereby forming a cathode.
In the above-mentioned process, the vapor deposition rate of the organic material was maintained at 0.4 to 0.7 Å/sec, the deposition rate of LiF was maintained at 0.3 Å/sec, the deposition rate of aluminum was maintained at 2 Å/sec, and the degree of vacuum during the deposition was maintained at 2*10^−7 to 5*10^−8 torr.
An organic light emitting device was manufactured in the same manner as in Example 1, except that the compounds shown in Table 2 below were used instead of Compound 1 as a host of the light emitting layer. The compounds used in Examples 1 to 14 are summarized as follows:
An organic light emitting device was manufactured in the same manner as in Example 1, except that the compounds shown in Table 2 below were used instead of Compound 1 as a host of the light emitting layer.
When a current is applied to the organic light emitting devices manufactured in Examples and Comparative Examples, the driving voltage, external quantum efficiency (EQE) and lifetime were measured at a current density of 10 mA/cm^2, and the results are shown in Table 3 below. At this time, the external quantum efficiency (FOE) was determined by “(number of photons emitted)/(number of charge carriers injected)*100” ˜, and T90 means the time required for the luminance to be reduced to 90% of the initial luminance (500 nit)

Structure (SMILES)	Driving voltage (V @ 10 mA/cm^2)	EQE (% @ 10 mA/cm^2)	Lifetime (hr) (T90 @500 nit)
c1ccc2cc(-c3c4ccccc4c(-c4ccc(-c5cccc6ccc(-c7ccc8cccc(-c9c%10ccccc%10c(-c%10ccc%11ccccc%11c%10)c%10ccccc9%10)c8c7)cc56)cc4)c4ccccc34)ccc2c1 [Compound 1]	6.4 V	5.53%	621 h
c1ccc2cc(-c3ccc(-c4c5ccccc5c(-c5cccc6ccc(-c7ccc8cccc(-c9c%10ccccc%10c(-c%10ccc%11ccccc%11c%10)c%10ccccc9%10)c8c7)cc56)c5ccccc45)cc3)ccc2c1 [Compound 2]	6.4 V	5.57%	685 h
c1ccc2cc(-c3c4ccccc4c(-c4cccc5ccc(-c6ccc7cccc(-c8c9ccccc9c(-c9ccc(-c%10cccc%11ccccc%10%11)cc9)c9ccccc89)c7c6)cc45)c4ccccc34)ccc2c1 [Compound 3]	6.6 V	5.48%	662 h
c1cc(-c2cccc3ccc(-c4ccc5cccc(-c6c7ccccc7c(-c7ccc8ccccc8c7)c7ccccc67)c5c4)cc23)cc(-c2c3ccccc3c(-c3cccc4ccccc34)c3ccccc23)c1 [Compound 4]	6.0 V	5.37%	725 h
c1cc(-c2cccc3ccc(-c4ccc5cccc(-c6c7ccccc7c(-c7ccc8ccccc8c7)c7ccccc67)c5c4)cc23)cc(-c2c3ccccc3c(-c3ccc4ccccc4c3)c3ccccc23)c1 [Compound 5]	6.2 V	5.32%	679 h
c1cc(-c2ccc(-c3c4ccccc4c(-c4cccc5ccccc45)c4ccccc34)cc2)c2cc(-c3ccc4cccc(-c5c6ccccc6c(-c6cccc7oc8ccccc8c67)c6ccccc56)c4c3)ccc2c1 [Compound 6]	6.4 V	5.41%	733 h
c1cc(-c2cccc3ccc(-c4ccc5cccc(-c6c7ccccc7c(-c7ccc8oc9ccccc9c8c7)c7ccccc67)c5c4)cc23)cc(-c2c3ccccc3c(-c3ccc4ccccc4c3)c3ccccc23)c1 [Compound 7]	6.1 V	5.56%	649 h
c1cc(-c2ccc(-c3c4ccccc4c(-c4cccc5ccccc45)c4ccccc34)cc2)c2cc(-c3ccc4cccc(-c5c6ccccc6c(-c6ccc7oc8ccccc8c7c6)c6ccccc56)c4c3)ccc2c1 [Compound 8]	6.5 V	5.49%	630 h
c1ccc2c(-c3c4ccccc4c(-c4ccc(-c5ccc6ccc(-c7ccc8ccc(-c9c%10ccccc%10c(-c%10ccc%11oc%12ccccc%12c%11c%10)c%10ccccc9%10)cc8c7)cc6c5)cc4)c4ccccc34)cccc2c1 [Compound 9]	6.4 V	5.43%	680 h
c1ccc2cc(-c3c4ccccc4c(-c4ccc5ccc(-c6ccc7ccc(-c8c9ccccc9c(-c9ccc(-c%10cccc%11ccccc%10%11)cc9)c9ccccc89)cc7c6)cc5c4)c4ccccc34)ccc2c1 [Compound 10]	6.3 V	5.4%	615 h
c1ccc2cc(-c3c4ccccc4c(-c4ccc(-c5cccc6cc(-c7ccc8c(-c9c%10ccccc%10c(-c%10ccc%11ccccc%11c%10)c%10ccccc9%10)cccc8c7)ccc56)cc4)c4ccccc34)ccc2c1 [Compound 11]	6.5 V	5.46%	654 h
c1cc(-c2ccc(-c3c4ccccc4c(-c4cccc5ccccc45)c4ccccc34)cc2)c2ccc(-c3ccc4c(-c5c6ccccc6c(-c6ccc7oc8ccccc8c7c6)c6ccccc56)cccc4c3)cc2c1 [Compound 12]	6.2 V	5.45%	659 h
c1ccc(-c2c3ccccc3c(-c3ccc(-c4ccc5cc(-c6ccc7cc(-c8c9ccccc9c(-c9ccccc9)c9ccccc89)ccc7c6)ccc5c4)cc3)c3ccccc23)cc1 [Compound A]	6.8 V	4.05%	321 h
c1ccc2c(-c3ccc(-c4c5ccccc5c(-c5ccc(-c6cccc7c(-c8cccc9ccc(-c%10ccc(-c%11c%12ccccc%12c(-c%12cccc%13ccccc%12%13)c%12ccccc%11%12)cc%10)cc89)cccc67)cc5)c5ccccc45)cc3)cccc2c1 [Compound B, reference compound]	6.9 V	4.17%	419 h
